Laboratory results from the supplement of paper PMC9578143, “Small-Molecule Ebselen Binds to YTHDF Proteins Interfering with the Recognition of N^6-Methyladenosine-Modified RNAs” (ACS Pharmacology & Translational Science, 2022).
This is one part of the list. Baselines shift from plate to plate; read single values as rough.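 Hits were defined as a z-score below −3.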

biological target: T1, YTHDF1 YTH domain (aa 365-554) (UniProt Q9BYJ9); assay: tryptophan fluorescence intensity z-score (mean); higher = higher fluorescence, less quenching (negative = binding / quenching); conditions: 10 µM
T1 sequence (whole entry): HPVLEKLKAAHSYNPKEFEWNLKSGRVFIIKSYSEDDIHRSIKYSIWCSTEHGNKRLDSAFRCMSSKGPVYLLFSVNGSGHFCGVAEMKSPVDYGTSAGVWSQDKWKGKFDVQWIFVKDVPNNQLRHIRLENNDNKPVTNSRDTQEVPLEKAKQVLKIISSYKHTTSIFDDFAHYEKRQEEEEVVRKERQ

| Structure (SMILES) | tryptophan fluorescence intensity z-score |
| --- | --- |
| CC(C)CCC[C@@H](C)[C@H]1CC[C@H]2[C@@H]3CC[C@H]4C[C@H](O)CC[C@]4(C)[C@H]3CC[C@]12C (plate: M 23-24) | inactive: 0.344 |
| CCOC(=O)[C@H](CCc1ccccc1)N[C@H]1CCc2ccccc2N(CC(=O)O)C1=O (plate: M 9-10) | inactive: -0.416 |
| CCOC(=O)OC(C)OC(=O)[C@@H]1N2C(=O)[C@@H](NC(=O)[C@H](N)c3ccccc3)[C@H]2SC1(C)C (stereo partly drawn) (plate: M 7-8) | inactive: 0.059 |
| COc1cc(-c2coc3cc(O)c(OC)c(O)c3c2=O)cc(O)c1OC (plate: M 15-16) | inactive: -0.183 |
| O=C(O)CS (plate: M 21-22) | inactive: 0.173 |
| O=C(Cc1cccs1)N[C@@H]1C(=O)N2C(C(=O)[O-])=C(C[n+]3ccccc3)CS[C@H]12 (plate: M 13-14) | inactive: 0.66 |
| C[C@@]12CCc3occc3[C@H]1CC[C@@]13C[C@@H](CC[C@H]12)[C@@](O)(CO)C3 (plate: M 19-20) | inactive: 0.297 |
| CC(C)(C)NC[C@H](O)COc1nsnc1N1CCOCC1 (plate: M 5-6) | inactive: -0.0726 |
| C[C@]12CCC(=O)C=C1CC[C@@H]1[C@@H]2[C@@H](O)C[C@@]2(C)[C@H]1CC[C@]2(O)C(=O)COC(=O)CCC(=O)O (plate: M 3-4) | inactive: -0.479 |
| NC1(C(=O)O)CCCC1 (plate: M 21-22) | inactive: 0.623 |
| NCCCC[C@H](N[C@@H](CCc1ccccc1)C(=O)O)C(=O)N1CCC[C@H]1C(=O)O (plate: M 7-8) | inactive: 0.0783 |
| C=C1c2cccc(O)c2C(=O)C2=C(O)[C@]3(O)C(=O)C(C(N)=O)=C(O)[C@@H](N(C)C)[C@@H]3[C@@H](O)[C@H]12 (plate: M 7-8) | inactive: -0.205 |
| COc1cc2cc3c4cc(OC)c(OC)cc4cc[n+]3c(C)c2cc1OC (plate: M 17-18) | inactive: -0.0292 |
| Cn1c(=O)c2nc[nH]c2n(C)c1=O (plate: M 5-6) | inactive: 0.0806 |
| Cc1scc2c1N(C(=O)CN1CCN(C)CC1)c1ccccc1NC2=O (plate: M 23-24) | inactive: 0.119 |
| CC(=O)c1ccc(S(=O)(=O)NC(=O)NC2CCCCC2)cc1 (plate: M 11-12) | inactive: 0.424 |
| COc1ccc(CN(CCN(C)C)c2ccccn2)cc1 (plate: M 5-6) | inactive: -0.0579 |
| CCCNC(C)C(=O)Nc1ccccc1C (stereo not drawn) (plate: M 9-10) | inactive: -0.402 |
| Nc1ncn([C@@H]2O[C@H](CO)[C@@H](O)[C@H]2O)c(=O)n1 (plate: M 7-8) | inactive: 0.223 |
| CC(COc1ccccc1)N(CCCl)Cc1ccccc1 (stereo not drawn) (plate: M 11-12) | inactive: -0.556 |
| OC[C@H]1O[C@H]([S-])[C@H](O)[C@@H](O)[C@@H]1O.[Au+] (plate: M 1-2) | inactive: 0.0151 |
| C[C@@H]1CC[C@@]2(OC1)O[C@H]1C[C@H]3[C@@H]4CC[C@H]5C[C@@H](O)CC[C@]5(C)[C@H]4CC[C@]3(C)[C@H]1[C@@H]2C (plate: M 13-14) | inactive: 0.191 |
| Nc1ccc(S(=O)(=O)Nc2ncccn2)cc1 (plate: M 5-6) | inactive: -0.127 |

| Structure (SMILES) | tryptophan fluorescence intensity z-score |
| --- | --- |
| C#C[C@]1(OC(C)=O)CC[C@H]2[C@@H]3CCC4=C[C@@H](OC(C)=O)CC[C@@H]4[C@H]3CC[C@@]21C (plate: M 11-12) | inactive: 0.0997 |
| C#C[C@]1(O)CC[C@H]2[C@@H]3CCC4=CC(=O)CC[C@@H]4[C@H]3CC[C@@]21C (plate: M 3-4) | inactive: -0.553 |
| O=c1c(O)c(-c2ccccc2)oc2ccccc12 (plate: M 17-18) | inactive: 0.169 |
| CO[C@@]1(NC(=O)C(C(=O)O)c2ccc(O)cc2)C(=O)N2C(C(=O)O)=C(CSc3nnnn3C)CO[C@@H]21 (stereo partly drawn) (plate: M 3-4) | inactive: -0.0417 |
| COC(=O)C1=C(C)NC(C)=C(C(=O)OC)C1c1ccccc1[N+](=O)[O-] (plate: M 3-4) | inactive: -0.577 |
| Cc1cc(NC(=O)C2=C(O)c3ccccc3S(=O)(=O)N2C)no1 (plate: M 7-8) | inactive: 0.0386 |
| Cc1cc(C(C)(C)CC(C)(C)C)ccc1OCCOCC[N+](C)(C)Cc1ccccc1 (plate: M 7-8) | inactive: -0.888 |
| CN(C)CCCN1c2ccccc2CCc2ccc(Cl)cc21 (plate: M 11-12) | inactive: -0.517 |
| Cc1cc(OC(=O)c2c(C)cc(O)cc2O)cc(O)c1C(=O)O (plate: M 15-16) | inactive: 0.454 |
| Clc1ccccc1CN1CCc2sccc2C1 (plate: M 11-12) | inactive: -0.326 |
| C[C@]12C=CC(=O)C=C1CC[C@@H]1[C@@H]2[C@@H](O)C[C@@]2(C)[C@H]1CC[C@]2(O)C(=O)CO (plate: M 5-6) | inactive: -0.321 |
| O=C(O)c1cc(=O)c2cccc(O)c2[nH]1 (plate: M 17-18) | inactive: -0.154 |
| O=c1[nH]cc(F)c(=O)[nH]1 (plate: M 3-4) | inactive: -0.374 |
| CS(=O)(=O)c1ccc([C@@H](O)[C@@H](CO)NC(=O)C(Cl)Cl)cc1 (plate: M 7-8) | inactive: 0.421 |
| N=c1ccn2c(n1)O[C@H]1[C@H](O)[C@@H](CO)O[C@H]12 (plate: M 23-24) | inactive: 0.467 |
| C[C@@H]1O[C@@H](Oc2c(-c3ccc(O)c(O)c3)oc3cc(O)cc(O)c3c2=O)[C@H](O)[C@H](O)[C@H]1O (plate: M 17-18) | inactive: -0.242 |
| O=c1cc(-c2cc(O)c(O)c(O)c2)oc2cc(O)cc(O)c12 (plate: M 19-20) | inactive: 0.0979 |
| O=C(O)Cc1ccccc1Nc1c(Cl)cccc1Cl (plate: M 1-2) | inactive: 0.467 |
| CC[C@@]1(O)C(=O)OCc2c1cc1n(c2=O)Cc2cc3cc(O)ccc3nc2-1 (plate: M 21-22) | inactive: 0.154 |
| CC(=O)OC/C=C(C)/C=C/C=C(C)/C=C/C1=C(C)CCCC1(C)C (plate: M 23-24) | inactive: 0.342 |
| NS(=O)(=O)c1cc2c(cc1Cl)N=C(CSCc1ccccc1)NS2(=O)=O (plate: M 1-2) | inactive: 0.208 |
| O=C1C(CC[S+]([O-])c2ccccc2)C(=O)N(c2ccccc2)N1c1ccccc1 (stereo not drawn) (plate: M 5-6) | inactive: 0.264 |
| CC(C(=O)O)[C@H]1CCC2C3CC=C4C[C@@H](O)CC[C@]4(C)C3CC[C@@]21C (stereo partly drawn) [3beta-HYDROXY-23,24-BISNORCHOL-5-ENICACID] (plate: M 15-16) | inactive: 0.342 |

Random excerpt: 3 records from the list, in no set order.

| Structure (SMILES) | tryptophan fluorescence intensity z-score |
| --- | --- |
| CS(=O)(=O)c1ccc([C@@H](O)[C@@H](CO)NC(=O)C(Cl)Cl)cc1 (plate: M 7-8) | inactive: 0.421 |
| O=C1C(CC[S+]([O-])c2ccccc2)C(=O)N(c2ccccc2)N1c1ccccc1 (stereo not drawn) (plate: M 5-6) | inactive: 0.264 |
| CO[C@@]1(NC(=O)C(C(=O)O)c2ccc(O)cc2)C(=O)N2C(C(=O)O)=C(CSc3nnnn3C)CO[C@@H]21 (stereo partly drawn) (plate: M 3-4) | inactive: -0.0417 |

The list continues.

| Structure (SMILES) | tryptophan fluorescence intensity z-score |
| --- | --- |
| O=C(O[C@@H]1Cc2c(O)cc(O)cc2O[C@@H]1c1cc(O)c(O)c(O)c1)c1cc(O)c(O)c(O)c1 (plate: M 15-16) | inactive: -1.17 |
| CC(C)(CO)[C@@H](O)C(=O)NCCCO (plate: M 13-14) | inactive: 0.863 |
| CNC[C@H](O)c1cccc(O)c1 (plate: M 5-6) | inactive: -0.0895 |
| CCN(CC)CCNC(=O)c1ccc(NC(C)=O)cc1 (plate: M 11-12) | inactive: 0.0247 |
| CCCc1nc(C)c2c(O)nc(-c3cc(S(=O)(=O)N4CCN(CC)CC4)ccc3OCC)nn12 (plate: M 11-12) | inactive: -0.245 |
| Cc1cn(C2CC(N=[N+]=[N-])C(CO)O2)c(=O)[nH]c1=O (stereo not drawn) (plate: M 7-8) | inactive: 0.251 |
| O=C1C=C2CC3(O)COc4cc(O)ccc4C3=C2C=C1O (stereo not drawn) (plate: M 15-16) | inactive: 0.00503 |
| N[C@H](Cc1ccccc1)C(=O)O (plate: M 21-22) | inactive: 0.0941 |
| O=c1c(-c2ccc(O)cc2)coc2cc(O)cc(O)c12 (plate: M 21-22) | inactive: -0.626 |
| COc1cc2c(cc1OC)-c1cc3ccc(OC)c(OC)c3c[n+]1CC2 (plate: M 19-20) | inactive: -0.143 |
| COc1cc2c(cc1OC)-c1cc3ccc(OC)c(OC)c3c[n+]1CC2 (plate: M 17-18) | inactive: -0.232 |
| COC(=O)[C@H]1[C@H]2C[C@@H]3c4[nH]c5cc(OC)ccc5c4CCN3C[C@H]2C[C@@H](OC(=O)c2cc(OC)c(OC)c(OC)c2)[C@@H]1OC (plate: M 5-6) | inactive: -0.187 |
| CC(=O)C12OC(C)(c3ccccc3)OC1CC1C3CCC4=CC(=O)CCC4(C)C3CCC12C (stereo not drawn) (plate: M 11-12) | inactive: -0.912 |
| CNC(=C[N+](=O)[O-])NCCSCc1ccc(CN(C)C)o1 (plate: M 7-8) | inactive: 0.101 |
| CC1(C)C2CC(=O)O[C@@]3(C)C4=CC(=O)O[C@@H](c5ccoc5)[C@]4(C)CCC3[C@@]2(C)C=C[C@H]1O (stereo partly drawn) (plate: M 13-14) | inactive: 0.0745 |
| O=C(O)P(=O)(O)O (plate: M 7-8) | inactive: 0.135 |
| CCN(CC)CCCC(C)Nc1c2ccc(Cl)cc2nc2ccc(OC)cc12 (stereo not drawn) (plate: M 5-6) | inactive: -0.206 |
| Cc1nc(C)c(Cl)c(O)c1Cl (plate: M 9-10) | inactive: -0.203 |
| CC(=O)N1CCN(c2ccc(OCC3COC(Cn4ccnc4)(c4ccc(Cl)cc4Cl)O3)cc2)CC1 (stereo not drawn) (plate: M 3-4) | inactive: -0.117 |
| C#C[C@]1(O)CC[C@H]2[C@@H]3CCc4cc(OC)ccc4[C@H]3CC[C@@]21C (plate: M 3-4) | inactive: -0.142 |
| CC(C)NCC(O)c1ccc(NS(C)(=O)=O)cc1 (stereo not drawn) (plate: M 13-14) | inactive: 0.0379 |
| CO[C@H]1C[C@@H]2CC[C@@H](C)[C@@](O)(O2)C(=O)C(=O)N2CCCC[C@H]2C(=O)O[C@H]([C@H](C)C[C@@H]2CC[C@@H](O)[C@H](OC)C2)CC(=O)[C@H](C)/C=C(\C)[C@@H](O)[C@@H](OC)C(=O)[C@H](C)C[C@H](C)/C=C/C=C/C=C/1C (plate: M 9-10) | inactive: -0.528 |
